# Measured values published in patent US20240238310A1, “MODULATION OF SEX STEROID HORMONE PRODUCTION AND ACTIVITY FOR TREATING AND PREVENTING HERNIAS” (Northwestern University, priority 2020, published 2024).
# At least one compound was matched to its structure with a doubt left.
# System: Primary LAMT fibroblasts from WT mice
# Experiment: E2 treatment of primary LAMT fibroblasts: PCNA and Col1a1 protein levels
# Format: cell-based, mouse
smiles,measurement,setting,value
"C[C@]12CC[C@@H]3c4ccc(O)cc4CC[C@H]3[C@@H]1CC[C@@H]2O [E2, estradiol]",proliferative activity (PCNA expression),E2 10^−8-10^10 M for 24 h,increased proliferative activity evident by PCNA expression
same,"ECM deposition (type I collagen, Col1a1, expression)","E2 treatment, FIG. 7C",stimulated ECM deposition as shown by increased type I collagen (Col1a1) expression
